PubChem BioAssay AID602196 | INSERM, 2012
Screen: 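Modifiers of cisplatin sensitivity in A549 cells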. Cells: human A549 lung cancer cells. Reagents: siRNA pair against human genes. Time to read-out: 48 h transfection before cisplatin; time from cisplatin to read-out not stated. Challenge: cisplatin at a dose killing half of control-siRNA cells; exact dose and duration not given. Measured: 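Shift in cisplatin death relative to control siRNA, from -50 (all cells die) to +50 (no cells die); siRNAs harmful on their own scored 0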. Direction: two-siRNA summed score (-2 to +2): higher = both siRNAs protect from cisplatin killing; -2 means both sensitise. Rule for the call: 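Each siRNA scores 0 if harmful alone by LDH or WST-1, otherwise +1 if it reduces and -1 if it increases cisplatin killing; a gene is active when both siRNAs agree (sum +2 or -2)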. Meaning of the calls: active = both siRNAs shift cisplatin killing the same way; inactive = no consistent shift, or siRNA harmful alone.
Here is a random part of about 23,000 reagents tested. 455 of them (2%) were called active. 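Active includes both protection and sensitisation; some change values fall well beyond the stated -50 to +50 range.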 A number with no mark means an inactive call. The numbers tell different reagents against one gene apart. Not all columns of the deposit are shown. Reagent sequences are not shown. Not given: the amount of reagent.

With TIMM29, what was measured?
two-siRNA summed score (-2 to +2): 0

Which result is listed for H2BC21?
two-siRNA summed score (-2 to +2): 0

How did the screen score SLC3A1?
two-siRNA summed score (-2 to +2): 0

For LOC151443, what was measured?
two-siRNA summed score (-2 to +2): -1

How did the screen score TLR2?
two-siRNA summed score (-2 to +2): 0

How did the screen score ADAM18?
two-siRNA summed score (-2 to +2): 0

With NADK, what was measured?
two-siRNA summed score (-2 to +2): 0

With ZNF544, what was measured?
two-siRNA summed score (-2 to +2): 0

For PRPF8, how do the results read?
two-siRNA summed score (-2 to +2): 0

For PYGM, how do the results read?
two-siRNA summed score (-2 to +2): 0

What did the screen give for LOC388148?
two-siRNA summed score (-2 to +2): 0

With RPUSD1, what was measured?
two-siRNA summed score (-2 to +2): 0

For SLC17A4, what was measured?
two-siRNA summed score (-2 to +2): 0

How did the screen score SNX24?
two-siRNA summed score (-2 to +2): 0

How did the screen score HSFX1?
two-siRNA summed score (-2 to +2): 0

What is on record for HLA-DRB4?
two-siRNA summed score (-2 to +2): -1

What is on record for MKRN10P?
two-siRNA summed score (-2 to +2): -1

What did the screen give for ERC1?
two-siRNA summed score (-2 to +2): -1

Which result is listed for TBC1D9?
two-siRNA summed score (-2 to +2): -1

How did the screen score WASF3?
two-siRNA summed score (-2 to +2): 0

Which result is listed for POLI?
two-siRNA summed score (-2 to +2): 0

How did the screen score IRF2BP1?
two-siRNA summed score (-2 to +2): 0

Records listed so far whose target name starts with L or l (2):
LOC151443 | two-siRNA summed score (-2 to +2) = -1
LOC388148 | two-siRNA summed score (-2 to +2) = 0

Further records follow.
For CIART, what does the deposit list?
two-siRNA summed score (-2 to +2): 0

With HRAS, how do the results read?
two-siRNA summed score (-2 to +2): 0

For EFCAB6, what was measured?
two-siRNA summed score (-2 to +2): -1

For FAM225A, what does the deposit list?
two-siRNA summed score (-2 to +2): 0

For TSGA13, how do the results read?
two-siRNA summed score (-2 to +2): 0

With H2AC11, what does the deposit list?
two-siRNA summed score (-2 to +2): 1

For RPS20, what does the deposit list?
two-siRNA summed score (-2 to +2): 0

With ZPR1, how do the results read?
two-siRNA summed score (-2 to +2): 0

With LOC400763, what was measured?
two-siRNA summed score (-2 to +2): 0

Which result is listed for SLC9D1?
two-siRNA summed score (-2 to +2): 0

What is on record for ZNF550?
two-siRNA summed score (-2 to +2): 0

With LINC00029, how do the results read?
two-siRNA summed score (-2 to +2): 1

What is on record for MGC10646?
two-siRNA summed score (-2 to +2): 0

What is on record for DCTD #1?
two-siRNA summed score (-2 to +2): 0

Which result is listed for DCTD #2?
two-siRNA summed score (-2 to +2): 0

What did the screen give for LOC343839?
two-siRNA summed score (-2 to +2): 0

With SERPINB6, what does the deposit list?
two-siRNA summed score (-2 to +2): 0

For IPO11, how do the results read?
two-siRNA summed score (-2 to +2): 0
